Source: US10703770B2, “Compositions and methods for the dissolution and depolymerization of lignin” (National Technology & Engineering Solutions of Sandia, LLC, priority 2016, dated 2020)

Key:
[1] = tested on: switchgrass (SG); experiment: One-pot IL pretreatment and enzymatic saccharification, sugar yield; set-up: species or system Panicum virgatum; conditions: optimized conditions
[2] = tested on: switchgrass (SG); experiment: Compositional analysis of switchgrass after [EOA][OAc] pretreatment; set-up: species or system Panicum virgatum

In the case of `CC(=O)O.NCCO` [[EOA][OAc], ethanolamine acetate], the “glucose liberated from switchgrass” value [1] is reported as 85%, the “xylan contents of pretreated biomass” value ([2]; over all pretreatment conditions of Table 2) is reported as 24-27% and the “reduction of lignin content” value ([2]; pretreatment under higher temperature, untreated 20% vs. pretreated 4.7%) is reported as 77%.
